# Results reported in US5053431A, “Derivatives of chrysophanol as topoisomerase II inhibitors” (Sloan-Kettering Institute For Cancer Research, priority 1990, dated 1991).
# At least one structure is not confirmed: it was looked up by name or label, or the drawing left a doubt.
# Columns and labels:
# [1] = system: mouse leukemia L1210 cells; assay: Inhibition of L1210 cell growth; assay type: cell-based; conditions: in words
# Experimental: Preliminary biological data for inhibiting cell growth of murine L1210 leukemic cells and human acute promyelocytic leukemia cells (HL-60) during 72 h of exposure to the compounds are given in Table IV. The potencies for inhibiting [^3 H]TdR incorporation into DNA in HL-60 cells during the initial 30-min period are also given in Table IV. It is interesting to note that 1,8-di-O-methyl derivatives are uniformly devoid of activity against L1210 leukemic cells. […] The B/A ratios allow an indirect estimation of whether or not cytotoxicities exerted by these analogues are primarily due to initial inhibition of DNA synthesis. […] Whether these analogues, like m-AMSA, ellipticine, or anthracyclines, act by inhibiting DNA topoisomerase II remains to be explored. […] Our preliminary experiments indicate that the compounds arrest cells in the S and/or G2 phases of the cell cycle (unpublished results).
# [2] = system: DNA (native and thermally denatured); assay: Spectrophotometric study of DNA interaction; assay type: binding, calf thymus; conditions: absorption spectra
# Experimental: Some representative compounds were studied for their ability to interact with nucleic acids in solution by comparison of the electronic spectrum of drug alone with that of the drug in the presence of an excess of nucleic acid. All drugs studied have an absorption band in the visible region, separate from the absorption band of the nucleic acids, and therefore any changes in band intensity and position were indicative of drug chromophore-DNA interaction.
# Absorption spectra were measured with an IBM 9410 UV-visible spectrometer interfaced to an HP 9826 computer. Small volumes of the stock drug solutions (2 mg/mL in Me2 SO) were added to 2 mL of buffer (0.01 or 0.1 M NaCl, 5 mM Hepes, pH 7) to obtain a final drug concentration of 5-15 μM, or to the solution of native or thermally denatured DNA (0.2 and 0.1 mM, respectively) in the buffer. After incubation at room temperature for 10 min, the spectra were recorded in the 300-600 nm range (increment 1 nm) and corrected by subtracting the spectrum of the blank which was measured before addition of the drug.
smiles,measurement,setting,value
"Cc1cc(O)c2c(c1)C(=O)c1cc(O)cc(O)c1C2=O [IIb, emodin, reference compound]",anticancer or cytocidal activity,[1],little anticancer or cytocidal activity
same,interaction with DNA,[2],do not appear to interact with DNA to any significant extent
"O=C1c2cccc(O)c2C(=O)c2c(O)cc(CN(CCO)CCO)cc21 [XIa-2, 3-[N,N-bis(2-hydroxyethyl)amino] methyl-1,8-dihydroxy-9,10-anthraquinone]",interaction with DNA,[2],interact with both native and thermally denatured DNA but more strongly with native DNA
